For at least one compound, name, drawing or mass did not settle the structure.
Experiments:
Type in all cases: in vivo, Balb/c mice
[1] = system: ear edema of DTH mice induced by DNFB; experiment: Delay-type hypersensitivity test (DTHT) in mice: ear edema; details: topical, DMY 1 mg/ear and/or DEX 1.5625 μg/ml, 24th, 48th, 72nd h after challenge, vs Model Group
Procedure: (§1) Male Balb/c mice, weighing 19-21 g were sensitized through topical application of 20 μl of 0.5% (v/v) DNFB in acetone onto the shaved abdomen on days 1 and 2. Challenge was then preformed on day 6 by applying DNFB (20 μl, 0.5%, v/v) on the left inner and outer ear surfaces of mice. DMY (at dosage of 1 mg/ear) and/or DEX (1.5625 μg/ml) dissolved in acetone was topically applied (20 μl) to the ears at 2nd, 24th, 48th, 72nd, hour after the challenge. The edema was calculated as the difference between the thickness of left and right ear at the 24th, 48th and 72nd h after challenge. […] The control 100 group was treated only with DNFB or solvent solution.
FIGS. 1a and 1b show the effects of DEX, DMY and the combinational application of DMY and DEX (illustrated as the DMY+DEX group) on treatment of ear edema of DTH mice induced by DNFB. Edema as expressed as the increase in ear thickness (ΔT in micrometer±S.E.M.) in the DNFB experiments. Percentages of inhibition (% I) for each measurement were calculated from values for the DEX, DMY and DMY+ DEX groups with respect to those for the Model Group. Statistically significant differences with respect to the Model Group are expressed as *P<0.05 and **P<0.01 (Dunnett's t test).
The animal model was conducted as mentioned in section 1.1 of Example 1 above. […]

[2] = system: mononuclear cell infiltrate in the ear; experiment: Histological examination of ear inflammation; details: DNFB-treated mice, ear histology
Procedure: as §1
(§2) The animal model was conducted as mentioned in section 1.1 of Example 1 above. […] Antigens were retrieved by steaming samples in DAKO target retrieval buffer (DAKO) for 20 minutes. After the nonspecific binding sites were blocked, the sections were incubated overnight at 4° C. with CD4 or CD8 antibodies (Phoenix Pharmaceuticals).
(§3) Sections were stained with 3,3′-diaminobenzidine substrate and counterstained with Meyer hematoxylin and eosin.

[3] = system: CD4+ and CD8+ cells in the ears; experiment: Immunohistochemical staining of CD4 and CD8 in ear sections; details: immunohistochemical analysis; in comparison with the Model Group
Procedure: as §1, §2, §3

## C[C@@H]1C[C@H]2[C@@H]3CCC4=CC(=O)C=C[C@]4(C)[C@@]3(F)[C@@H](O)C[C@]2(C)[C@@]1(O)C(=O)CO [DEX, dexamethasone]
[1]
  effect on ear edema (increase in ear thickness, percentages of inhibition): could inhibit ear edema
[2]
  number of inflammatory cells in the ear: could be significantly reduced
[3]
  accounts of CD4+ and CD8+ cells in the treated ears: shown to reduce the accounts of CD4+ and CD8+ cells

Source: patent publication US9018196B2, “Development of a new formulation overcoming thymus atrophy with concomitantly enhancement of anti-inflammatory effect of dexamethasone” (Macau University of Science and Technology, priority 2013, dated 2015)
